Test results: patent US20180161262A1, “Cosmetic Method and Dermatological Topical Agent for Use Therein, Migration Imparting Agent, and Method for Screening Components for Use in Cosmetic Method for Improving Skin State” (ROHTO PHARMACEUTICAL CO., LTD., priority 2015, published 2018)
Some of these results come from one statement about several compounds together.

Test system: human adipose-derived stem cells
Assay: Confirmation test for migration imparting effect (96-well Boyden chamber, Calcein-AM fluorescence)
Type: cell-based
Conditions: conclusion from Tables 3 to 8
Description: A medium of human adipose-derived stem cells (manufactured by Kurabo Industries Ltd.; cultured to the 7th passage in STEMLIFE medium [provided by Lifeline Cell Technology]) was replaced with DMEM/F12 medium (manufactured by Life Technologies Corp.), followed by culture for additional 20 hours.
Meanwhile, a medium in which a sample to be examined for the presence or absence of the migration imparting effect was dissolved at a predetermined concentration was prepared by using 0.1% by volume of fetal bovine serum (nutritional source). Also, DMEM/F12 medium containing 0.1% by volume of fetal bovine serum and not containing the sample (blank) was provided.
Then, the prepared medium was supplied at 200 μL per well to lower wells of a 96-well Boyden chamber (manufactured by Corning Inc., model number: 3384) having a membrane pore size of 8 μm. […]
1.2 μL/mL of Calcein-AM (fluorescent dye, manufactured by Molecular Probes/Thermo Fisher Scientific Inc.) dissolved at 1.66 mg/mL in DMSO (manufactured by Wako Pure Chemical Industries, Ltd.) was added to 10× cell dissociation solution (cell dissolution solution, manufactured by Trevigen Inc.) diluted 10-fold with sterilized water to thereby prepare an index solution for fluorescence emission having the correlation between the number of human adipose-derived stem cells and the strength of fluorescence emission. […]

| Substance | Migration imparting effect (result in words) |
| --- | --- |
| caprooyl tetrapeptide-3 | human adipose-derived stem cells migrated from the upper side to the lower side of the membrane |
| copper tripeptide-1 | human adipose-derived stem cells migrated from the upper side to the lower side of the membrane |
